Measurements published in paper PMC8805583, “Discovery of Herbacetin as a Novel SGK1 Inhibitor to Alleviate Myocardial Hypertrophy” (Advanced Science, 2021).
Results are given in words; binding and its absence hold for the method and conditions named. Binding seen in cells or lysates may run through a third protein. Some binding calls cover weakened binding; strength is not graded here.

Sequences of proteins named here, by UniProt entry; tags and fusion partners are left off.
UniProt Q06226: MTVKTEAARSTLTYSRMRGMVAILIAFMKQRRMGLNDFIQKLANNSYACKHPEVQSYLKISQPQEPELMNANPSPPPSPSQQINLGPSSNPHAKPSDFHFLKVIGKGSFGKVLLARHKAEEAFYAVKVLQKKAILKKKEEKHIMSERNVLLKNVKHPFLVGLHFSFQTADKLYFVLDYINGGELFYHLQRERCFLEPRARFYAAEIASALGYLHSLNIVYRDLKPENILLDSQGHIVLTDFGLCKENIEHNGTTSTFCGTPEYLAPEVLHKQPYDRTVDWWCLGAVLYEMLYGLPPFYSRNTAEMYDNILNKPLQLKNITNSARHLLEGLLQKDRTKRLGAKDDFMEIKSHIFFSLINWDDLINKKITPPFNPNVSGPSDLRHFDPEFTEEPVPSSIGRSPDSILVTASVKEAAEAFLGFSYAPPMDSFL
UniProt G3V7R4: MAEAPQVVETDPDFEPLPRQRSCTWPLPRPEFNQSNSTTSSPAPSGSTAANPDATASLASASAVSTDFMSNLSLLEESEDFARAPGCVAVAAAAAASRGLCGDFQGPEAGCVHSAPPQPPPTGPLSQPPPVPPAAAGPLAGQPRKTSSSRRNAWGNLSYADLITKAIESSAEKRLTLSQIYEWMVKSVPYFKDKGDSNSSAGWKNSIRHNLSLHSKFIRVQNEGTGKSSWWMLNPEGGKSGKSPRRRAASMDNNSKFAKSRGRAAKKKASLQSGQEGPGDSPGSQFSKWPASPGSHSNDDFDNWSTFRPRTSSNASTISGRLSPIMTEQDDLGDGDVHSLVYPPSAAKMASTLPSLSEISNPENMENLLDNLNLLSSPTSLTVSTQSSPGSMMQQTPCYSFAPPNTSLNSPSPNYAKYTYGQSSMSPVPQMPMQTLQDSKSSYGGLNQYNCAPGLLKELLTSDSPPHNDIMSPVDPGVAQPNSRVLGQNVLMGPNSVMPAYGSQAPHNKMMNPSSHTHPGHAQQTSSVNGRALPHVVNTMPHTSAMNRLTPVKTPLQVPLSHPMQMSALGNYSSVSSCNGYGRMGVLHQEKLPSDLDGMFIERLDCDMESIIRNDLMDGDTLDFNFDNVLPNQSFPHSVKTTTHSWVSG

Target: Serum/glucocorticoid regulated kinase 1 (rat (endogenous in neonatal rat cardiomyocytes)) (UniProt Q06226)
Assay: co-IP; endogenous interaction assay; neonatal rat cardiomyocytes treated with HBT or vehicle for 24 h, lysed; extracts immunoprecipitated with anti-SGK1 or anti-IgG antibody and protein A/G beads, western blot

- binding: binds
Substance: forkhead box protein O1 (from UniProt G3V7R4 1-649)
